From PubChem BioAssay AID720537 (National Center for Advancing Translational Sciences (NCATS), 2013)
This list holds what a sample rich in hits left over. Inconclusive results are not listed. Calls of active or inactive are those of the source. The call rests on the fitted dose curve; in most records, active means well fitted inhibition curve with a large enough effect; inconclusive means small, poorly fitted or top-dose-only effect; inactive means no such curve, though single readings can be large or run the other way.

Experiment: qHTS for Inhibitors of TGF-b: Hit Validation in HepG2 Cells using COP promoter;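 further: 0% = TGF-beta stimulated DMSO wells and -100% = unstimulated cell wells; nearly all actives have a fitted effect of over 70% in size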
Conditions: HepG2 COP-GFP TGF-b reporter, GFP fluorescence, 18 h, cells stimulated by added recombinant TGF-beta; at 46.1 µM (top of the series)
Excerpt: TGF-b is a main component in the TGF-b signaling pathway which plays diverse roles in cellular and development pathways. TGF-b is the mediated by the transcription factors Smads. Although the Smad-dependent pathway is the primary canonical TGF-b signaling node, TGF-b1 can also activate alternative signaling pathways, including those involving MAPK (ERK, JNK and p38). This interaction may mediate or enhance Smad-dependent responses, or can exert Smad-independent effects. The complexity of this signaling cascade allows the TGF-b superfamily to perform unique, overlapping or redundant functions. […] We aim to identify Smad3-small molecule antagonists using a quantitative high throughput screening (qHTS) approach. […]
Suspensions of trypsinized HEPG2 COP-GFP cells were dispensed into white, tissue culture-treated, solid 1536-well plates at 5uL/well (1000 cells/well final concentration) in DMEM medium supplemented with 1% FBS. […] The plates were measured on an Acumen eX3 Explorer plate reader for GFP fluorescence (ex488/em500-530). GFP values were calculated by determining the mean GFP fluorescence of individual cells, and compiling these values for each well to determine a total well GFP signal. The %Activity was determined from the corrected fluorescence values. […] Concentration-response curves were fitted to the signals arising from the resulting fluorescence. […]

| Compound | activity, negative = inhibition |
| --- | --- |
| COc1c(O)cc2c(c1OC)-c1ccc(SC)c(=O)cc1C(NC(C)=O)CC2 (stereo unspecified) | inactive: -11.6% |
